No constants are given. Whether binding was seen depends on the method and setting. Binding seen in cells or lysates may run through a third protein. Binding can be weak; no strength is given. Tags and fused reporters may be left off the sequences shown.
Target: T1, GST-PCF11 (human PCF11 amino acid 637-702) (human) (UniProt O94913)
T1 sequence: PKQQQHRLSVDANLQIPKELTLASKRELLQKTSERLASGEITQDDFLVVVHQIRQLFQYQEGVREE
Experiment: pull-down; purified GST-tagged protein on glutathione Sepharose beads, in vitro translated Myc-tagged protein (rabbit reticulocyte lysate) added; 25 mM Tris pH 8.0, 2.7 mM KCl, 137 mM NaCl, 0.05% Tween-20, 10 mM 2-mercaptoethanol, 5% milk powder; immunoblot anti-Myc; only the target purified

The chains behind the UniProt entries cited, without tags or fusion partners. Where a name states a change or a piece, a line headed by the entry shows the natural chain unless it says otherwise.
UniProt P43364: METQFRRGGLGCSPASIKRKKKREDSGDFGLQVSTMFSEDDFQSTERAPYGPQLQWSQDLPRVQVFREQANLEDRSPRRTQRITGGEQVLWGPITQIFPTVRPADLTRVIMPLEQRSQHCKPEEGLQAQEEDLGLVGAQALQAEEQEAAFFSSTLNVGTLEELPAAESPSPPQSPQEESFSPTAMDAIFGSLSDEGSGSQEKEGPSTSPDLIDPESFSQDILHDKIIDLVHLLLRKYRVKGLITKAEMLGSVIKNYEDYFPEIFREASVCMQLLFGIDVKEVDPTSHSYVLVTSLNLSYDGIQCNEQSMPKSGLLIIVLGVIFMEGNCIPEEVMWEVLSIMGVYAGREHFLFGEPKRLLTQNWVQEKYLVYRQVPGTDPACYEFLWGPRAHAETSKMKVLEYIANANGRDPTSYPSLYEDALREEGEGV

Substance | binding
Myc-MAGE-A11 N-terminal fragment (human) (domain or fragment) | no binding
Myc-MAGE-A11 H231 mutant (in vitro translated) (from UniProt P43364) | binds

Reference: PMC7529893, “Structural basis for substrate recognition and chemical inhibition of oncogenic MAGE ubiquitin ligases” (Nature Communications, 2020)
